The other results are listed elsewhere or left out.
Key:
Test in all cases: log2 fold change, soluble protein after heating vs DMSO (PISA); higher = thermal stabilisation; K562 lysate, 10 uM; active = over 0.2 and 3.5 SD of the protein, either way, in both replicates (recomputed)
alvocidib = compound: CN1CC[C@H](c2c(O)cc(O)c3c(=O)cc(-c4ccccc4Cl)oc23)[C@H](O)C1 [alvocidib]
How it was run: (§1)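 The values are log-two fold changes in thermal stability compared with solvent controls and come from duplicates. They were obtained by TMTpro 16plex LC-MS/MS, with channel sums equalised, on the supernatant after 21,000xg for 90 min. That supernatant came from crude K562 extract at 1 mg/mL protein treated with 10 μM compound for 30 min, heated for 3 min across 48°C-58°C, pooled and brought to 0.5% NP-40 at 4°C.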

Protein sequences, listed by entry. Tags and fused reporters are not part of them. Lines headed by an entry give the natural chain unless they say otherwise; changes in a name come on top.
UniProt Q9Y4U1: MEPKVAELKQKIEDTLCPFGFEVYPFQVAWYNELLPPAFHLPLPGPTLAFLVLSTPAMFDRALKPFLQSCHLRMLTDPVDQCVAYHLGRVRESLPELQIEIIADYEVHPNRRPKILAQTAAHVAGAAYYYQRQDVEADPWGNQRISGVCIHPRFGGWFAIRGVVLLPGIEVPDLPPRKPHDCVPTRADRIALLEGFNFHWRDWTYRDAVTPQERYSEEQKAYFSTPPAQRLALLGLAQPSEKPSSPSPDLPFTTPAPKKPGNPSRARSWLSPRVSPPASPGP
UniProt Q7L4E1: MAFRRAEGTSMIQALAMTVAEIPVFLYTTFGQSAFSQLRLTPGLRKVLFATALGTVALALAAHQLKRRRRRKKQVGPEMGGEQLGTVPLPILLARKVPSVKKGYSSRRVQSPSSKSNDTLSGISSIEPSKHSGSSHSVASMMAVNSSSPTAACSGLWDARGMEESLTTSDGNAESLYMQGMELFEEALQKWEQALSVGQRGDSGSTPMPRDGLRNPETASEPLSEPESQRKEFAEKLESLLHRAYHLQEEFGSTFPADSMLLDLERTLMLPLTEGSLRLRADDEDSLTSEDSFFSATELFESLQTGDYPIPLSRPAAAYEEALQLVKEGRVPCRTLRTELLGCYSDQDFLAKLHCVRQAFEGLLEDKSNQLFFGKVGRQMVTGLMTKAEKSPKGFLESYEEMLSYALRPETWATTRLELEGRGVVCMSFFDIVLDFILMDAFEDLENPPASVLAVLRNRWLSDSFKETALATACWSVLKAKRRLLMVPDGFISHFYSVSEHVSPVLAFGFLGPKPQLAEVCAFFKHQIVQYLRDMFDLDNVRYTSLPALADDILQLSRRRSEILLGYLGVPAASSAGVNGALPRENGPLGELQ
UniProt Q8NDA8: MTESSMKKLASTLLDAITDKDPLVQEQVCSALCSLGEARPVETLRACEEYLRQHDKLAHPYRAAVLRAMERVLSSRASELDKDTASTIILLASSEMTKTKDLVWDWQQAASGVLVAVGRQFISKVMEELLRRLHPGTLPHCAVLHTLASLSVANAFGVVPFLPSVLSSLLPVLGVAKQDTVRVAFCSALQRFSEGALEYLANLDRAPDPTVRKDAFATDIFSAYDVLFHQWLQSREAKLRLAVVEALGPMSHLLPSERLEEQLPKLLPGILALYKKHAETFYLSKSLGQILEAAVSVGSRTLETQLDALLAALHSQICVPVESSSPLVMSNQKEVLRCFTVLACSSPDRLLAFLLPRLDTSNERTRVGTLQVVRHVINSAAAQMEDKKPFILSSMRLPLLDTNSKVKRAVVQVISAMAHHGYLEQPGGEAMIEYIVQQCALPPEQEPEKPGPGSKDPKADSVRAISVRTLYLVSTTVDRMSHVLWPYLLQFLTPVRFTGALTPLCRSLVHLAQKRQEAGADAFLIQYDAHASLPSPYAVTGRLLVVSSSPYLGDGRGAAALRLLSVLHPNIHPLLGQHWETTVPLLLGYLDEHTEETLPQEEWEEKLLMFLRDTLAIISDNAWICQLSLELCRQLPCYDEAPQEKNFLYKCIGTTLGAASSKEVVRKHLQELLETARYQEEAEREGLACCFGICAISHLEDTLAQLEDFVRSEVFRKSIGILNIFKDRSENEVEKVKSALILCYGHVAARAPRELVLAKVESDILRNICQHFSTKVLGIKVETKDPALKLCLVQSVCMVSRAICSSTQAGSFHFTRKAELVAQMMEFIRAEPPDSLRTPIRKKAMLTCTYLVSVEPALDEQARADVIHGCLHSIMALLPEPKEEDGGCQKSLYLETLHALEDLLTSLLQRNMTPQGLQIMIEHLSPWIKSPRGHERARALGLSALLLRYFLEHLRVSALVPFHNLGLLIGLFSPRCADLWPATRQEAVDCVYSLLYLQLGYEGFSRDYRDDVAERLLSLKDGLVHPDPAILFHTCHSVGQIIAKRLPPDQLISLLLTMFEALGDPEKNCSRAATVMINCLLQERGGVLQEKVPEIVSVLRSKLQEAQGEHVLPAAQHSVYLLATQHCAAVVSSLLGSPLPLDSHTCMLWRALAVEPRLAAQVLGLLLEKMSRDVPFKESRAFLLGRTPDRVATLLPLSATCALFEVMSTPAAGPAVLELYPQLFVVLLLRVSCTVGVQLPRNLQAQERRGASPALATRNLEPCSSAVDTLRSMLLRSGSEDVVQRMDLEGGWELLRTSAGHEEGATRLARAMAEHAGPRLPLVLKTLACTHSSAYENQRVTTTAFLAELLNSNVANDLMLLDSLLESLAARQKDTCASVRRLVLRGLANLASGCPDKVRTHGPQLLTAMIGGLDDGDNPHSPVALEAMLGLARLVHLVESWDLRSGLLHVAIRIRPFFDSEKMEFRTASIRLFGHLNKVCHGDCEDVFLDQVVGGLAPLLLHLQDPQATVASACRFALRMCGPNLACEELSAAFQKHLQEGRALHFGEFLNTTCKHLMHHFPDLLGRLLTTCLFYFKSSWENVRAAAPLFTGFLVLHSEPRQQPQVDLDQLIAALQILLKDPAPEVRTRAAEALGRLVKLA
UniProt Q8N4V1: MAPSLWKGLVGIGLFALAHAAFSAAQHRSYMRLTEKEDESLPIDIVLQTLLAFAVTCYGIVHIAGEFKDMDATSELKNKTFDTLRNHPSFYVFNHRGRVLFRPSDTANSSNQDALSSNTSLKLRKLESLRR
UniProt Q9H8S9: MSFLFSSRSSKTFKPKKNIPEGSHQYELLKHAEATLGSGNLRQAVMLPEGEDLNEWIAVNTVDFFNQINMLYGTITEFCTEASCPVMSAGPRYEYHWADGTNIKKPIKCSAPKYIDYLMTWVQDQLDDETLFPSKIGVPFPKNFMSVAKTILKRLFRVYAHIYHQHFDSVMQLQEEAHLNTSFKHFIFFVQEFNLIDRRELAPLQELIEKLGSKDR
UniProt Q8N5J2: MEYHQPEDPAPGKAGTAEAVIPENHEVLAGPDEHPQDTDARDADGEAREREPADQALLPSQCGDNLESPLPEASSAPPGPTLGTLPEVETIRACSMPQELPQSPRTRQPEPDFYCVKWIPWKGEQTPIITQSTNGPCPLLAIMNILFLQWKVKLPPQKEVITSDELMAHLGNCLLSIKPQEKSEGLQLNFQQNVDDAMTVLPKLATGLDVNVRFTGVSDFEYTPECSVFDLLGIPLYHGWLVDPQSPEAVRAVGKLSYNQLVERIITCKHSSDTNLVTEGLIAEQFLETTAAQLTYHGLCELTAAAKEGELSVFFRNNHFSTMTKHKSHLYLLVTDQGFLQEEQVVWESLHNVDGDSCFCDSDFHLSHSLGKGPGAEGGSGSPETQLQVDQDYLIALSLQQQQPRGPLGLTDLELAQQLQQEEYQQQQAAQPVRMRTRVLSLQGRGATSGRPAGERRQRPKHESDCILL
UniProt Q8NB16: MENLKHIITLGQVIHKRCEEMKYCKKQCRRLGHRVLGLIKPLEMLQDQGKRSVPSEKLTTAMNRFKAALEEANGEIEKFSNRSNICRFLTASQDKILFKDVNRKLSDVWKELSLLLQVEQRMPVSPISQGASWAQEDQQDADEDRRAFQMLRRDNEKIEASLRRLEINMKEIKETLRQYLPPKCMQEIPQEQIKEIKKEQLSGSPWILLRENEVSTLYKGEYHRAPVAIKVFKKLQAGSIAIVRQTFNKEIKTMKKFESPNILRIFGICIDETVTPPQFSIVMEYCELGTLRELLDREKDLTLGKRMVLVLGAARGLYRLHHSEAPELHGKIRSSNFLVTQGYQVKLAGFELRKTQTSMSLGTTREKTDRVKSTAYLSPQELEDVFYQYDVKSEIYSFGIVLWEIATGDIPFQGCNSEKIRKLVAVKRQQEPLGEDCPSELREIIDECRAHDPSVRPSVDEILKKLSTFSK
UniProt P58340: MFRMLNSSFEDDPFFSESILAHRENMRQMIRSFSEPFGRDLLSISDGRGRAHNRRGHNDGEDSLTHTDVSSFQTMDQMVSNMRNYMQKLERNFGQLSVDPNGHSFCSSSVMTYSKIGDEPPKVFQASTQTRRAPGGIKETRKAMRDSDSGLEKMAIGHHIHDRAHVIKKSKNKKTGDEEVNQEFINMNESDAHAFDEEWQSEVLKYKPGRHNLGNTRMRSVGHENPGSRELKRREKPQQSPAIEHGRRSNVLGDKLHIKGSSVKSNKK
UniProt P08473: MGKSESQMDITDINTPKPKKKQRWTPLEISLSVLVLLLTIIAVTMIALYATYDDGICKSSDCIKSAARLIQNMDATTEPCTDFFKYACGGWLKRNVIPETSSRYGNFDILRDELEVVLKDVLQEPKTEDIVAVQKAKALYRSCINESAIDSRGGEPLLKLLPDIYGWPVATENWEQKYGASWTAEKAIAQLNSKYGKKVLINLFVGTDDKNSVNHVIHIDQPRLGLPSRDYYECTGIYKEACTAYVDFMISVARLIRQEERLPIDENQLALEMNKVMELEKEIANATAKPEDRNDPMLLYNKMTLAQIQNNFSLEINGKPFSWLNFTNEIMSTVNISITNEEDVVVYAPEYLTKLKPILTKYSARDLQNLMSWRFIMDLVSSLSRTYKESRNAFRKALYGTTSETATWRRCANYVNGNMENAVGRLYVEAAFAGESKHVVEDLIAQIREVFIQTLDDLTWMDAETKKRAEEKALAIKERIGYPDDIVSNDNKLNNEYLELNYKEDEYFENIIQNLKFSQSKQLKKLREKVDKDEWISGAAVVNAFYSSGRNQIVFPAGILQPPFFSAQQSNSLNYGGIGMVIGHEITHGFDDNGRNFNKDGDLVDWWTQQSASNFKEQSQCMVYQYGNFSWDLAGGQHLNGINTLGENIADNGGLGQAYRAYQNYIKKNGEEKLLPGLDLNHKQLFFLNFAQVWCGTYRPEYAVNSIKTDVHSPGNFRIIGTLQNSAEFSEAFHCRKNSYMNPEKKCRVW
UniProt Q8NBR6: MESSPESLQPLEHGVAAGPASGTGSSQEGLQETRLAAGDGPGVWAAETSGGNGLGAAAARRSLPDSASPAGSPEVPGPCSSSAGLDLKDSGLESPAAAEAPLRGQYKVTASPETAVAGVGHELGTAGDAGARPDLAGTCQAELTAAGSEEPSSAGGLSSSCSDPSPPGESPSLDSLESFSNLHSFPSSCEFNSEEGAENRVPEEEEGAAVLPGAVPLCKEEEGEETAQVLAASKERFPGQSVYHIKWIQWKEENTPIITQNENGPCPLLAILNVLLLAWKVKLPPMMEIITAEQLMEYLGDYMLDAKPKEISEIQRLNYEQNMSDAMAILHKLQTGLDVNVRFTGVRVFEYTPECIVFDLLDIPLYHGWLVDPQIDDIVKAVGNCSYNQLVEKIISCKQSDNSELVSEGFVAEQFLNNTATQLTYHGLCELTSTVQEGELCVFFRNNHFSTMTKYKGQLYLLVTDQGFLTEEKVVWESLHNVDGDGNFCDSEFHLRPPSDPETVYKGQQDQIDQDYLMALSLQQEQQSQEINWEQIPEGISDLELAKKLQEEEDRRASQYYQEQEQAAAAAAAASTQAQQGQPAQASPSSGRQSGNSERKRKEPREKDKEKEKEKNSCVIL
UniProt O96033: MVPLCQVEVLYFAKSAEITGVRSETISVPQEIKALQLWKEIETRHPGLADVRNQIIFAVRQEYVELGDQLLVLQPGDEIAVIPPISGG
UniProt Q13064: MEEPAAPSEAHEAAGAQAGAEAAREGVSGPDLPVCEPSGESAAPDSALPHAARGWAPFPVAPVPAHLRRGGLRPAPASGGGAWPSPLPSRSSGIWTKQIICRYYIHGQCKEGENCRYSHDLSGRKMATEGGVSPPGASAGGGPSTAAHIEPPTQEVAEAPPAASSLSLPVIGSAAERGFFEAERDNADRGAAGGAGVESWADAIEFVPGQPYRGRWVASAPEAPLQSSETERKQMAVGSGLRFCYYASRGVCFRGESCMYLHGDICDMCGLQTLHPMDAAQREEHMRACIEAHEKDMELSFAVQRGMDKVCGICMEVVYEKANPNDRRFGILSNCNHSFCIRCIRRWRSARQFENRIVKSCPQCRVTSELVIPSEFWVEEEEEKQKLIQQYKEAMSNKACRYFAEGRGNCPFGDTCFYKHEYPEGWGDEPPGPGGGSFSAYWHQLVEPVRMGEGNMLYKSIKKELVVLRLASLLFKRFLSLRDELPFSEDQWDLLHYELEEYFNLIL
UniProt Q6NTE8: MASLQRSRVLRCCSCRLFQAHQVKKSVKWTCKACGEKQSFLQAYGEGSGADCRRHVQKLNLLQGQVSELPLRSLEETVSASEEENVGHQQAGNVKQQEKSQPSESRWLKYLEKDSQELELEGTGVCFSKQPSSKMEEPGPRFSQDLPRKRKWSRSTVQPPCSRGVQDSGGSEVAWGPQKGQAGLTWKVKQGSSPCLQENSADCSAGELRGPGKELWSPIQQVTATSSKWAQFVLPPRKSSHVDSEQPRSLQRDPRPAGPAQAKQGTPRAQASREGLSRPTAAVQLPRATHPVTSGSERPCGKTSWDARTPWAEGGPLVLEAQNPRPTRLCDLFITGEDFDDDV
UniProt Q96FF7: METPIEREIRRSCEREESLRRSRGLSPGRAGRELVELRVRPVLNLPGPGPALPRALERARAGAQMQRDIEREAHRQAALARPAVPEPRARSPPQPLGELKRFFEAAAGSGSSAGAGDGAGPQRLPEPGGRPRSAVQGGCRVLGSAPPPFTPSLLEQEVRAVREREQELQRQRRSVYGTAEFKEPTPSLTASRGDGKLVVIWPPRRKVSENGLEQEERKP

Tubastatin A = compound: CN1CCc2c(c3ccccc3n2Cc2ccc(C(=O)NO)cc2)C1 [Tubastatin A]
How it was run: as §1

[1] = compound: CNC(=O)C1=CC=CC=C1NC2=NC(=NC=C2Cl)NC3=C(C=C(C=C3)N4CCOCC4)OC
How it was run: as §1

defactinib = compound: CNC(=O)c1ccc(Nc2ncc(C(F)(F)F)c(NCc3nccnc3N(C)S(C)(=O)=O)n2)cc1 [defactinib]
How it was run: as §1

[2] = compound: CNc1nc(-c2ccc3c(N)n[nH]c3c2)cc(N2C[C@@H](C(=O)NC3CCCCC3)CC[C@H]2C)n1
How it was run: as §1

encorafenib = compound: COC(=O)N[C@@H](C)CNc1nccc(-c2cn(C(C)C)nc2-c2cc(Cl)cc(NS(C)(=O)=O)c2F)n1 [encorafenib]
How it was run: as §1

[3] = compound: COC(=O)[C@H](CCSC)NC(=O)C1=C(C=C(C=C1)NC[C@H](CS)N)C2=CC=CC=C2
How it was run: as §1

[4] = compound: COc1cc2nc(-c3cc(F)ccc3O)nc(N[C@@H]3CNC[C@H]3C(C)(C)O)c2cc1OC
How it was run: as §1

alisertib = compound: COc1cc(Nc2ncc3c(n2)-c2ccc(Cl)cc2C(c2c(F)cccc2OC)=NC3)ccc1C(=O)O [alisertib]
How it was run: as §1

gefitinib = compound: COc1cc2ncnc(Nc3ccc(F)c(Cl)c3)c2cc1OCCCN1CCOCC1 [gefitinib]
How it was run: as §1

Measured: log2 fold change

MNX1 (UniProt P50219)
inactive: alvocidib -0.023 | Tubastatin A 0 | [1] 0.06 | defactinib 0.067 | [2] -0.071 | encorafenib 0.134 | [3] -0.059 | [4] 0.16

MMACHC (UniProt Q9Y4U1)
inactive: alvocidib -0.058 | Tubastatin A -0.266 | defactinib -0.052 | [2] -0.11 | alisertib 0.089 | gefitinib -0.06

MGRN1 isoform 2 (UniProt O60291)
inactive: alvocidib -0.108 | [1] 0.026 | defactinib -0.005 | [2] -0.038 | encorafenib 0.015 | [3] -0.03 | [4] 0.112

MIGA2 (UniProt Q7L4E1)
inactive: Tubastatin A 0.06 | [1] 0.132 | [2] 0.004 | encorafenib 0.366 | [3] 0.149

MILR1 (UniProt Q7Z6M3)
inactive: Tubastatin A 0.126 | [1] -0.015 | defactinib 0.162 | encorafenib 0.054 | [3] -0.122

MIIP (UniProt Q5JXC2)
inactive: Tubastatin A -0.078 | [1] -0.258

MKKS (UniProt Q9NPJ1)
inactive: alvocidib -0.044 | defactinib -0.032 | [2] 0.032 | encorafenib 0.126 | [3] -0.196

MROH1 (UniProt Q8NDA8)
inactive: alvocidib -0.144 | Tubastatin A 0.046 | [2] -0.008 | encorafenib 0.065 | [3] 0.027

MMGT1 (UniProt Q8N4V1)
inactive: alvocidib 0.041 | Tubastatin A -0.128 | [1] 0.048 | [2] 0 | encorafenib 0.079 | [3] -0.038 | alisertib 0.015 | [4] -0.05 | gefitinib -0.025

MOB1A (UniProt Q9H8S9)
inactive: defactinib 0.063 | encorafenib -0.07 | [3] 0.019

MINDY1 isoform 3 (UniProt Q8N5J2)
inactive: Tubastatin A 0.093 | [1] -0.031 | defactinib 0.021 | [2] -0.054 | encorafenib 0.03 | [3] -0.053 | alisertib 0.001 | [4] 0.103 | gefitinib 0.134

MLKL (UniProt Q8NB16)
inactive: alvocidib -0.02 | Tubastatin A -0.124 | [1] 0.088 | encorafenib 0.056 | [3] 0.048 | alisertib 0.017 | [4] 0.015 | gefitinib 0.078

MR1 (UniProt Q95460)
inactive: [1] 0.074 | defactinib 0.047 | [2] -0.016 | encorafenib -0.055 | [3] -0.047

MRPL18 (UniProt Q9H0U6)
inactive: alvocidib -0.093 | Tubastatin A -0.149 | defactinib -0.02 | [2] -0.174 | encorafenib 0.001 | [3] 0.062 | alisertib -0.06 | [4] -0.025 | gefitinib 0.067

MLF1 isoform 3 (UniProt P58340)
inactive: alvocidib -0.173 | defactinib 0.02

MMS22L (UniProt Q6ZRQ5)
inactive: alvocidib 0.068 | [1] -0.011 | defactinib 0.06 | [2] -0.03 | encorafenib -0.007 | [3] 0.017 | alisertib -0.004 | [4] 0.055 | gefitinib 0.035

MPHOSPH8 (UniProt Q99549)
inactive: alvocidib -0.005 | Tubastatin A -0.228 | [1] 0.228 | defactinib 0.14 | [2] 0.012 | encorafenib 0.063 | [3] 0.029 | [4] -0.079

MINDY4 (UniProt Q4G0A6)
inactive: alvocidib -0.023 | Tubastatin A -0.153 | [2] 0.084 | alisertib -0.051 | gefitinib 0.007

MPZL3 (UniProt Q6UWV2)
inactive: Tubastatin A -0.03

MGMT (UniProt P16455)
inactive: Tubastatin A 0.262 | [2] 0.121

MRPL22 (UniProt Q9NWU5)
inactive: alvocidib 0.018 | Tubastatin A -0.033 | [1] 0.036 | alisertib -0.003 | [4] -0.052 | gefitinib -0.051

MICAL2 (UniProt O94851)
inactive: alvocidib -0.045 | Tubastatin A 0 | [1] 0.093 | defactinib 0.012 | [2] 0 | alisertib 0.072 | [4] 0.028 | gefitinib -0.053

MKNK2 (UniProt Q9HBH9)
inactive: Tubastatin A -0.011 | [1] 0.191 | defactinib -0.069 | [2] -0.059 | encorafenib 0.199 | [3] -0.167 | alisertib -0.322 | gefitinib -0.086

MLYCD (UniProt O95822)
inactive: alvocidib 0.012 | Tubastatin A -0.052 | [1] -0.005 | [2] 0.116 | encorafenib -0.029 | [3] 0.036 | alisertib 0.02 | [4] 0.01 | gefitinib -0.017

MME (UniProt P08473)
inactive: alvocidib -0.01 | Tubastatin A 0.081 | [1] 0.048 | [2] 0.142 | alisertib -0.079 | [4] -0.018 | gefitinib 0.066

MKKS (UniProt Q9HB66)
inactive: Tubastatin A 0.019 | [1] -0.028 | defactinib 0.149 | encorafenib 0.015 | [3] -0.028 | [4] 0.089

Quoted at random: two records from the list, in no set order.
MLYCD (UniProt O95822)
inactive: alvocidib 0.012 | Tubastatin A -0.052 | [1] -0.005 | [2] 0.116 | encorafenib -0.029 | [3] 0.036 | alisertib 0.02 | [4] 0.01 | gefitinib -0.017

MME (UniProt P08473)
inactive: alvocidib -0.01 | Tubastatin A 0.081 | [1] 0.048 | [2] 0.142 | alisertib -0.079 | [4] -0.018 | gefitinib 0.066

Following part.

MINDY2 (UniProt Q8NBR6)
inactive: alvocidib -0.048 | Tubastatin A 0.003 | encorafenib 0.105 | [3] -0.053 | alisertib -0.207 | [4] 0.111 | gefitinib 0.057

MOCS2 (UniProt O96033)
inactive: Tubastatin A 0.104 | [2] -0.023 | [4] 0.009

MRAS (UniProt O14807)
inactive: alvocidib 0.012 | [1] -0.051 | defactinib -0.114 | [2] 0.012 | encorafenib -0.134 | [3] 0.062 | alisertib -0.127 | [4] -0.072 | gefitinib 0.002

MKRN3 (UniProt Q13064)
inactive: alvocidib 0.002 | Tubastatin A 0.059 | [1] 0.02 | defactinib -0.106 | [2] 0.08 | alisertib 0.117 | [4] 0.095 | gefitinib 0.023

MRC2 (UniProt Q9UBG0)
inactive: alvocidib 0.04 | [1] -0.062 | [2] 0.05 | encorafenib 0.031 | [3] -0.301 | alisertib -0.075 | gefitinib 0.046

MRNIP (UniProt Q6NTE8)
inactive: alvocidib 0.081 | Tubastatin A -0.021 | [1] 0.035 | [2] -0.116 | alisertib -0.019 | [4] -0.013 | gefitinib 0.047

MISP3 (UniProt Q96FF7)
inactive: [2] 0.036 | alisertib -0.107 | [4] 0.14 | gefitinib 0.188

MRPL16 (UniProt Q9NX20)
inactive: Tubastatin A -0.054 | [1] -0.045 | defactinib 0.028 | [2] -0.017 | encorafenib 0.024 | [3] 0.075 | alisertib 0.054 | [4] -0.069 | gefitinib 0.074

MPHOSPH9 (UniProt Q99550)
inactive: alvocidib -0.596 | [1] -0.06 | defactinib 0.15 | encorafenib 0.179 | [3] -0.129
